Measurements taken from PubChem BioAssay AID493014 (National Center for Advancing Translational Sciences (NCATS), 2011).
Several values for one entry are separate records, joined by “and”; a condition that tells them apart may be missing. Equal entries are not always repeated. The list shows a part of the results. The main result of the screen is listed elsewhere. These columns were measured beside it and carry no call. The list favours compounds with an active or inconclusive main result. Words in brackets tell the shape of the fitted curve; partial curves, single points and poor fits give uncertain potencies.

Test: qHTS Assay to Find Inhibitors of Chronic Active B-Cell Receptor Signaling
Conditions: ABC-DLBCL IkBa-CBG/CBR reporter, luminescence ratio (green luciferase fused to IkBa over red control in TMD8 lymphoma cells), 4 h
How it was run: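 TMD8 ABC-DLBCL cells carrying doxycycline-inducible green luciferase fused to IkappaBalpha plus unfused red luciferase were exposed to compounds (up to 46 uM) for 4 hrs at 37C. Activity came from the overlap-corrected green/red luminescence ratio.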

[1] = measured here: CBR red luminescence, cell number

| SMILES | AC50 [1] | AC50 (measured here: IkBa-CBG green luminescence) |
| --- | --- | --- |
| Cc1nc2sc(C(c3cccs3)N3CCOCC3)c(O)n2n1 (stereo not drawn) | 14.6 µM [rising, partial curve] | – |
| CCc1cccc(NC(=O)CCc2nc(-c3cccs3)no2)c1 | 16.4 µM [rising, partial curve, poor fit] | – |
| CCOCC(=O)Nc1c(C(=O)Nc2ccccc2OC)oc2ccccc12 | 6.31 µM [rising, single point] | – |
| CC(=O)Nc1ccc(C(=O)COC(=O)CCc2ccccc2)c(F)c1 | 29.1 µM [rising, single point] | – |
| O=C(COC(=O)c1ccccc1NCCO)NCCC1=CCCCC1 | 5.17 µM [falling, full curve] | – |
| O=C(CCN1C(=O)/C(=C\C=C\c2ccccc2)SC1=S)Nc1cccc(C(=O)O)c1 | 0.501 µM [falling, full curve] | – |
| Cc1ccsc1CN(C)C(=O)c1cc(S(=O)(=O)N2CCOCC2)ccc1N1CCCC1 | 29.1 µM [falling, single point] | – |
| Cc1[nH]c2ccccc2c1/C=C(/C#N)C(=O)NC(C)C | 5.01 µM [falling, partial curve, poor fit] | – |
| CC(C)C[C@H](NC(=O)N1CCn2c1nc1ccccc12)C(=O)NCc1ccc2c(c1)OCO2 | 35.5 µM [falling, single point] | – |
| CN1CCN(c2cc3c(c4c2[nH]c2ccccc24)C(=O)CC(C)(C)C3)CC1 | 14.6 µM [falling, single point] | – |
| COc1ccccc1NC(=O)N1CCC(c2nc3cc(C)c(C)cc3[nH]2)CC1 | – | 5.8 µM [falling, full curve] |
| CC(=O)c1cnc2c(-c3cccc(Br)c3)cnn2c1C | 2.31 µM [rising, partial curve, poor fit] | – |
| COc1cccc(CN2CCN(Cc3cc(OC)c(OC)c(OC)c3)CC2)c1OC | 35.5 µM [falling, single point] | – |
| COc1ccc(C2NC(=O)c3ccccc3O2)cc1 (stereo not drawn) | 15.8 µM [rising, single point] | – |
| Cc1ccc(C)c(N2CCN(S(=O)(=O)c3cc4c(cc3C)NC(=O)CO4)CC2)c1 | 12.6 µM [rising, single point] | – |
| CCN(C(=O)CSc1cc(-c2ccccc2)c2ccc(OC)cc2n1)C1CCS(=O)(=O)C1 (stereo not drawn) | 20.6 µM [falling, single point] | – |
| Cc1ccc(/C=N/N(C)C2=NS(=O)(=O)c3ccccc32)cc1 | 3.98 µM [rising, single point] | – |
| O=C(N/N=C\c1ccc(F)cc1)c1ccc(F)cc1 | 10 µM [falling, partial curve, poor fit] | – |
| CCc1c(C)nc2cc(-c3ccc(OC)c(OC)c3)nn2c1N1CCCC1 | 22.4 µM [falling, single point] | – |
| COC(=O)c1c(NC(=S)NN2CCOCC2)sc2c1CCCC2 | 2.51 µM [rising, partial curve] | – |
| N#Cc1c(NC(=O)CCCC(=O)O)sc2c1CCCCC2 | 29.1 µM [falling, single point] | – |

| SMILES | AC50 [1] | AC50 (measured here: IkBa-CBG green luminescence) |
| --- | --- | --- |
| O=C(Nc1cccc(C(F)(F)F)c1)Nc1ccc(N2CCCC2)c(S(=O)(=O)Nc2ccccc2Cl)c1 | 4.11 µM [falling, full curve, poor fit] | – |
| C=CCN(c1ccccc1OC)S(=O)(=O)c1ccc(Cl)c(C(=O)Nc2ccc(N3CCOCC3)cc2)c1 | 35.5 µM [falling, single point] | – |
| Cc1ccc(Nc2nc3ccccc3n3nnnc23)cc1 | 3.16 µM [falling, partial curve, poor fit] | – |
| CCCCNC(=O)c1cnn2c(C)c(Cc3c(F)cccc3Cl)c(C)nc12 | 2.51 µM [falling, partial curve, poor fit] | – |
| Nc1ccc(C(=O)Nc2cccc(N)c2)cc1 | 1.26 µM [falling, full curve, poor fit] | – |
| O=C(COC(=O)c1c2c(nc3ccccc13)CCCC2)Nc1ccc2c(c1)OCO2 | 14.1 µM [falling, single point] | – |
| COc1ccc(NC(=O)CN2C(=O)CSc3ccc(S(=O)(=O)N4CCCC4)cc32)cc1OC | 22.4 µM [rising, single point] | – |
| N=C1C(c2nc3ccccc3s2)=C(O)CN1NC(=O)c1c[nH]c2ccccc12 | 12.6 µM [falling, single point] | – |
| Cc1ccccc1Cn1c(CN2CCC(C(=O)NCCN(C)C)CC2)cc2ccccc21 | 10 µM [falling, partial curve, poor fit] | – |
| COc1ccc(Cl)cc1NC(=O)CN(C)C(=O)c1ccc2c(c1)CC(c1ccccc1)OC2=O (stereo not drawn) | 16.4 µM [falling, single point] | – |
| Fc1cccc(Nc2nc3ccccc3n3cnnc23)c1 | 3.16 µM [rising, partial curve, poor fit] | – |
| Cc1ccn2c(C(=O)N/N=C/c3ccc(CNC(=O)C(=O)Nc4ccc(C)c(C)c4)o3)c(C)nc2c1 | 7.31 µM [falling, partial curve] | – |
| Cc1cccc(N2CCN(C(=O)CCSCc3ccccc3F)CC2)c1C | 6.31 µM [rising, single point] | – |
| CCCC(=O)N(CCN(Cc1ccccc1)C(=O)CCC)Cc1ccccc1 | 35.5 µM [falling, single point] | – |
| CCOc1cccc(C(=O)NC(=S)Nc2ccc(Cl)cc2C(=O)O)c1 | 3.98 µM [falling, partial curve] | – |
| CN(C)S(=O)(=O)N(CC(=O)Nc1ccc(S(=O)(=O)N2CCCC2)cc1)c1ccccc1 | 6.31 µM [rising, single point] | – |
| COc1cccc(CCNC(=O)c2ccc(C#N)cc2)c1 | 0.501 µM [rising, partial curve, poor fit] | – |
| Cn1ncc2c(NNC(=O)c3ccc(O)cc3)ncnc21 | 10 µM [falling, partial curve] | – |
| O=C(CCCOc1ccccc1)N1CCc2ccccc2C1 | 1.46 µM [rising, full curve, poor fit] | – |
| O=c1cc[nH]c2c1ccc1cccnc12 | 29.1 µM [falling, single point] | – |
| CN(C)S(=O)(=O)c1ccc(C(=O)Nc2ccc(-n3nncc3-c3ccccc3)cc2)cc1 | 3.55 µM [rising, single point] | – |

A draw from above in order of molar mass, high to low.

| SMILES | AC50 [1] | AC50 (measured here: IkBa-CBG green luminescence) |
| --- | --- | --- |
| COc1cccc(CN2CCN(Cc3cc(OC)c(OC)c(OC)c3)CC2)c1OC | 35.5 µM [falling, single point] | – |
| CCCCNC(=O)c1cnn2c(C)c(Cc3c(F)cccc3Cl)c(C)nc12 | 2.51 µM [falling, partial curve, poor fit] | – |
| CC(=O)c1cnc2c(-c3cccc(Br)c3)cnn2c1C | 2.31 µM [rising, partial curve, poor fit] | – |

Look-ups from the entries so far.
Value for `Cn1ncc2c(NNC(=O)c3ccc(O)cc3)ncnc21` under AC50 [1]: 10 µM [falling, partial curve]
Value for `Cc1ccc(/C=N/N(C)C2=NS(=O)(=O)c3ccccc32)cc1` under AC50 [1]: 3.98 µM [rising, single point]

Next part:

| SMILES | AC50 [1] | AC50 (measured here: IkBa-CBG green luminescence) |
| --- | --- | --- |
| Cc1c(Br)c([N+](=O)[O-])nn1CC(=O)Nc1ccc2nc3n(c(=O)c2c1)CCCC3 | 35.5 µM [falling, single point] | – |
| CN(C)S(=O)(=O)c1cccc(C(=O)Nc2cc(Cl)ccc2O)c1 | 1 µM [rising, full curve, poor fit] | – |
| CC(C)(C)OC(=O)N1CCC(c2c(C(=O)NCC3CCN(C4CCCC4)C3)cnn2-c2cccc(Cl)c2)CC1 (stereo not drawn) | 11.2 µM [falling, partial curve, poor fit] | – |
| O=[N+]([O-])c1ccc(Oc2ccc(C(F)(F)F)cn2)cc1 | 17.8 µM [rising, single point] | – |
| CCN(CC(=O)Nc1c(F)cccc1F)C(=O)c1ccc(-c2ccccc2)cc1 | 0.651 µM [falling, full curve] | – |
| O=C(N/N=C/c1ccc(O)cc1)c1ccc(COc2cc(Cl)ccc2Cl)o1 | 7.08 µM [falling, full curve] | – |
| Cc1c(N/C=C/C(=O)c2ccc(Cl)cc2)c(=O)n(-c2ccccc2)n1C | 9.2 µM [falling, partial curve] | – |
| O=C(N/N=C/c1ccc(-c2cccc(C(F)(F)F)c2)o1)c1ccccc1O | 14.6 µM [falling, partial curve, poor fit] | – |
| CCC(=O)NCCc1nc2cc(NC(=O)c3ccc(Cl)cc3)ccc2n1C | 10 µM [falling, partial curve, poor fit] | – |
| COC(=O)c1ccc(COc2cc(O)c3c(c2)OC(C)(C)CC3=O)cc1 | 15.8 µM [rising, partial curve, poor fit] | – |
| COCCNC(=O)[C@@H]1CCCN1S(=O)(=O)c1cccc2cccnc12 | 18.4 µM [rising, partial curve, poor fit] | – |
| CCOC(=O)c1cnc2ccc(OCC)cc2c1N1CCN(c2ccccc2OC)CC1 | 29.1 µM [falling, single point] | – |
| N=c1n(CCN2CCCCC2)c2ccccc2n1CC(O)c1cccc(Br)c1 (stereo not drawn) | 12.6 µM [falling, partial curve] | – |
| CC1=C(C#N)C(/C=N/OCc2ccc(F)cc2Cl)CC(=O)N1 (stereo not drawn) | 12.6 µM [rising, partial curve, poor fit] | – |
| COC(=O)c1ccc(C(=O)N=c2sccn2C)cc1 | 5.01 µM [falling, partial curve] | – |
| C/C(=N\NC(=O)c1cc(Br)ccc1O)c1ccccn1 | 0.562 µM [falling, full curve] | – |
| Clc1ccccc1-c1ccc2ncnc(NCc3ccc4c(c3)OCO4)c2c1 | 32.6 µM [falling, single point] and 16.4 µM [falling, single point] | – |
| CC1(C)CC(=O)C2=C(C1)Oc1ncn(Cc3ccco3)c(=N)c1C2c1ccccc1 (stereo not drawn) | 17.8 µM [falling, single point] | – |
| COc1c(C)cccc1C(=O)Nc1ccc(N2CCN(C(=O)c3ccccc3C)CC2)cc1 | 15.8 µM [falling, partial curve] | – |
| Cc1ccc(OCC(O)Cn2c(=N)n(CCN3CCCCC3)c3ccccc32)cc1 (stereo not drawn) | 20.6 µM [falling, single point] | – |
| O=S(=O)(Nc1cccc(S(=O)(=O)N2CCCC2)c1)c1cccc(Br)c1 | 9.2 µM [falling, partial curve, poor fit] | – |
